Common to all, as to assay: co-IP
Assay [1] deals with N-terminal FLAG-tagged L1CAM (N-L1CAM; PB-CAG-FLAG-L1CAM-HA) (UniProt P32004).
Assay [2] has as its target L1CAM (full-length L1CAM of the co-IP in Figure 4G) (UniProt P32004).
Assay [3] concerns the target L1CAM, endogenous in ENCCs (human (endogenous in hiPSC-derived ENCCs)) (UniProt P32004).
The target in assay [4] is N-terminal FLAG-tagged L1CAM (N-L1CAM; PB-CAG-FLAG-L1CAM-HA) (UniProt P32004). The source holds these as a separate data set.

Protein sequences, listed by entry. Tags and fused reporters are not part of them. Residues count along the entry.
UniProt P32004, 20-1257: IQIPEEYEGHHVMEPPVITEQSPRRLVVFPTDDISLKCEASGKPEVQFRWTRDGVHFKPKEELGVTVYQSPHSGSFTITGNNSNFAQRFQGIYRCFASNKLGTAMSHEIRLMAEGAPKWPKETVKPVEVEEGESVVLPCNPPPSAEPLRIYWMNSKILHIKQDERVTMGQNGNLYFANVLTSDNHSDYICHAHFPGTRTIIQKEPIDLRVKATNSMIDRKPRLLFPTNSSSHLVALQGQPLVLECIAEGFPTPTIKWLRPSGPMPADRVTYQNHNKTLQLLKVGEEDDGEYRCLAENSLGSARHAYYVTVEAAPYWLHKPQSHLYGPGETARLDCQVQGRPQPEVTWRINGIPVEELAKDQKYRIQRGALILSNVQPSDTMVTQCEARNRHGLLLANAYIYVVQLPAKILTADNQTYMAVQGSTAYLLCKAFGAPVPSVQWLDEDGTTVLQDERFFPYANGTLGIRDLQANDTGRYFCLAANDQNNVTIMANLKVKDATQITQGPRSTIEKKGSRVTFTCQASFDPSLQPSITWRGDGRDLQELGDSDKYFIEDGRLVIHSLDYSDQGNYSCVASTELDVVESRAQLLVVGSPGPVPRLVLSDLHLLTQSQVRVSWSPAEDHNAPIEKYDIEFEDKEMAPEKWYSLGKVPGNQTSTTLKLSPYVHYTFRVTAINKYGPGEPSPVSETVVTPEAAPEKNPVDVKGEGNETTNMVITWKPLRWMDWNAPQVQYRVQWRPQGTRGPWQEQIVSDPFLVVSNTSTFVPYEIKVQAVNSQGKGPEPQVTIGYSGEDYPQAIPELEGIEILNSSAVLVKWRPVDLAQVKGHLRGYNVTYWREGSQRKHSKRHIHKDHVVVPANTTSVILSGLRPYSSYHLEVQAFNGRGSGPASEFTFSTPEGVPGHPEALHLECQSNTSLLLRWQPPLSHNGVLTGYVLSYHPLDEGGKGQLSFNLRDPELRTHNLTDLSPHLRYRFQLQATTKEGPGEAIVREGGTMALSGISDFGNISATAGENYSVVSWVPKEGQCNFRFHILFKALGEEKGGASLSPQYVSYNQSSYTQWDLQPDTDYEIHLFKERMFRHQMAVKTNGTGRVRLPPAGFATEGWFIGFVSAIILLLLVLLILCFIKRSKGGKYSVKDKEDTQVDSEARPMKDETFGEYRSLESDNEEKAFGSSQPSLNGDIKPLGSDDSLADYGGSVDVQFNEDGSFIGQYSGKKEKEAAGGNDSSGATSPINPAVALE
UniProt Q14974, whole entry: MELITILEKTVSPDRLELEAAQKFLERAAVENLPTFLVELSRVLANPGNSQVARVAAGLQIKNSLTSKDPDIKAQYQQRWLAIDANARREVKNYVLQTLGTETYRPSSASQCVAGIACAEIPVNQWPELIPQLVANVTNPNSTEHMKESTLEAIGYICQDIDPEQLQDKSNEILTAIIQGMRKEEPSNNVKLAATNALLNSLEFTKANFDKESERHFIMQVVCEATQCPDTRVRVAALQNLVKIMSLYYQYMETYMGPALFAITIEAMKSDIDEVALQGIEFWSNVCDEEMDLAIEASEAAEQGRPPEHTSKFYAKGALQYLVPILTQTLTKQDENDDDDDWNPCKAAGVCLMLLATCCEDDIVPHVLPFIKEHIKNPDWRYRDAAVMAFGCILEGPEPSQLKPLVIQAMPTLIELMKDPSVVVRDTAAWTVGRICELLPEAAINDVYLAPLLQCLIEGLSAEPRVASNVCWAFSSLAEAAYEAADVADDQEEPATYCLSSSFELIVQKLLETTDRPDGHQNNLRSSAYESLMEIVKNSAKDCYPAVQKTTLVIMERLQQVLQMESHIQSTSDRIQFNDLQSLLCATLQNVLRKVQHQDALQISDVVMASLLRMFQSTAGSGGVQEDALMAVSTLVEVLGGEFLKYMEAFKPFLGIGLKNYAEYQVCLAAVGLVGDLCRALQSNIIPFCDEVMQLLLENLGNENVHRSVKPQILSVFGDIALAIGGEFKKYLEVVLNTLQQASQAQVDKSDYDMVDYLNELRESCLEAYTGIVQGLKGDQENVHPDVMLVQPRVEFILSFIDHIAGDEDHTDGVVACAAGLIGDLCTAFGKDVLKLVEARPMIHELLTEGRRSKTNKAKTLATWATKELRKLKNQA

Like-named read-outs stand apart in the source and are kept apart here. These are yes or no findings as the source states them, for the method shown. Binding seen in cells or lysates may run through a third protein. Some results given as binding are weak or reduced against the parent protein; the word gives no strength. For some assays here: Tags and fused reporters may be left off the sequences shown.

Take “KPNB1 (importin-β1) tagged with an N-terminal FLAG and C-terminal EGFP-APEX2 (PB-CAG-FLAG-KPNB1-EGFP-APEX2) (from UniProt Q14974 1-876)”: in assay [1], the binding entry was “binds”.
“KPNB1 (nuclear import protein, co-IP in Figure 4G) (from UniProt Q14974 1-876)”: the binding result in assay [2] was “binds”.

B1: FUT8 (fucosyltransferase 8), endogenous in ENCCs (enzyme, UniProt Q9BYC5 1-575)
chain: MRPWTGSWRWIMLILFAWGTLLFYIGGHLVRDNDHPDHSSRELSKILAKLERLKQQNEDLRRMAESLRIPEGPIDQGPAIGRVRVLEEQLVKAKEQIENYKKQTRNGLGKDHEILRRRIENGAKELWFFLQSELKKLKNLEGNELQRHADEFLLDLGHHERSIMTDLYYLSQTDGAGDWREKEAKDLTELVQRRITYLQNPKDCSKAKKLVCNINKGCGYGCQLHHVVYCFMIAYGTQRTLILESQNWRYATGGWETVFRPVSETCTDRSGISTGHWSGEVKDKNVQVVELPIVDSLHPRPPYLPLAVPEDLADRLVRVHGDPAVWWVSQFVKYLIRPQPWLEKEIEEATKKLGFKHPVIGVHVRRTDKVGTEAAFHPIEEYMVHVEEHFQLLARRMQVDKKRVYLATDDPSLLKEAKTKYPNYEFISDNSISWSAGLHNRYTENSLRGVILDIHFLSQADFLVCTFSSQVCRVAYEIMQTLHPDASANFHSLDDIYYFGGQNAHNQIAIYAHQPRTADEIPMEPGDIIGVAGNHWDGYSKGVNRKLGRTGLYPSYKVREKIETVKYPTYPEAEK
Turning to B1, the binding entry in assay [3] and in assay [4] was “binds” each time.

B2: FUT8 tagged with FLAG and EGFP-APEX2 (PB-CAG-FLAG-FUT8-EGFP-APEX2) (enzyme, UniProt Q9BYC5 1-575)
chain: MRPWTGSWRWIMLILFAWGTLLFYIGGHLVRDNDHPDHSSRELSKILAKLERLKQQNEDLRRMAESLRIPEGPIDQGPAIGRVRVLEEQLVKAKEQIENYKKQTRNGLGKDHEILRRRIENGAKELWFFLQSELKKLKNLEGNELQRHADEFLLDLGHHERSIMTDLYYLSQTDGAGDWREKEAKDLTELVQRRITYLQNPKDCSKAKKLVCNINKGCGYGCQLHHVVYCFMIAYGTQRTLILESQNWRYATGGWETVFRPVSETCTDRSGISTGHWSGEVKDKNVQVVELPIVDSLHPRPPYLPLAVPEDLADRLVRVHGDPAVWWVSQFVKYLIRPQPWLEKEIEEATKKLGFKHPVIGVHVRRTDKVGTEAAFHPIEEYMVHVEEHFQLLARRMQVDKKRVYLATDDPSLLKEAKTKYPNYEFISDNSISWSAGLHNRYTENSLRGVILDIHFLSQADFLVCTFSSQVCRVAYEIMQTLHPDASANFHSLDDIYYFGGQNAHNQIAIYAHQPRTADEIPMEPGDIIGVAGNHWDGYSKGVNRKLGRTGLYPSYKVREKIETVKYPTYPEAEK
As for B2, the binding result in assay [3] is “binds”.

These data come from doi:10.64898/2025.12.17.694357.
